Assay results published in publication PMC12620050.
These are yes or no findings as the source states them, for the method shown. In cells and extracts the contact can be indirect. Some binding calls cover weakened binding; strength is not graded here.

Sequences of proteins named here, by UniProt entry; tags and fusion partners are left off.
UniProt Q9Z1E3: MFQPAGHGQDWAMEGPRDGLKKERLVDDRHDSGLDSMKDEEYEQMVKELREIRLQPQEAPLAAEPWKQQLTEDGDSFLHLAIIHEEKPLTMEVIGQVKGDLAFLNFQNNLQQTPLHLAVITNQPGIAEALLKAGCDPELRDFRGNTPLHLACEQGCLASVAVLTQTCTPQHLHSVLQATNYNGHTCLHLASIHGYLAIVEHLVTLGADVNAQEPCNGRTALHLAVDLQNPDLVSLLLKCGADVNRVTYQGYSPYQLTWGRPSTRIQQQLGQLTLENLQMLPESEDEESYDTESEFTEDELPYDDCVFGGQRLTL

Biological target: T1, tripartite motif-containing protein 14 (TRIM14) (mouse (endogenous in BV2)) (UniProt Q8BVW3)
T1 sequence: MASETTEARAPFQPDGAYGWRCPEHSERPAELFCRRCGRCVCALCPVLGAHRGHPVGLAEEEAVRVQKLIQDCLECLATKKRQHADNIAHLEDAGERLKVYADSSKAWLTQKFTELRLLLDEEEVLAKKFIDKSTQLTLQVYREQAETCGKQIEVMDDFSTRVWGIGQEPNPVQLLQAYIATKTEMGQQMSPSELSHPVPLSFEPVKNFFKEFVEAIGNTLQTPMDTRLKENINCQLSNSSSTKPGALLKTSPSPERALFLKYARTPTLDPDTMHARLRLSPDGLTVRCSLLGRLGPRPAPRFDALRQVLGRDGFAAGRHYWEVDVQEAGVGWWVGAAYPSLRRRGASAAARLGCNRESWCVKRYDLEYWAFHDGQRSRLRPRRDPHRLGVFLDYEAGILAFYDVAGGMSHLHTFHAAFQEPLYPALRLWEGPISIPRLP
Assay: co-IP; BV2 cell lysate (500 ug total protein) precleared with Protein A/G agarose; IP with 1 ug anti-TRIM14 or anti-IκBα, normal rabbit IgG as negative control, 4°C; washes with lysis buffer containing 150 mM NaCl and 0.1% NP-40; western blot; also done after TRIM14 knockdown (siTRIM14)

For IκBα (from UniProt Q9Z1E3 1-314), the binding was “binds”.
